Measured values published in patent publication US20190269771A1, “PEPTIDE MIMOTOPE THAT INDUCES AN IMMUNE RESPONSE AGAINST MYCOBACTERIUM TUBERCULOSIS LIPOARABINOMANNAN (LAM)” (priority 2017, published 2019).

Tested on: CS-40 mAb
Assay: Biopanning of 12-mer phage display library with CS-40
Type: binding, mouse
Conditions: after the fifth panning cycle, 10 randomly selected phages

SGVYKVAYDWQH [SG peptide]
share of the sequenced phages: 30%

HSFKWLDSPRLR [HS peptide]
share of the sequenced phages: 70%
